No constants are given. Whether binding was seen depends on the method and setting. Binding seen in cells or lysates may run through a third protein. Some binding calls cover weakened binding; strength is not graded here. For some assays here: Sequences can lack the tags named with a protein.
Columns and labels:
[1] = molecular target: T1, Flag-Zc3h10 (mouse) (UniProt Q8R205); assay: co-IP; lysates of HEK293 cells cotransfected with FLAG-tagged Zc3h10 and HA-tagged Dot1l (whole or truncated); IP buffer 20 mM Tris pH 7.4, 150 mM NaCl, 1 mM EDTA, 10% glycerol, 1% NP-40; 2 hr at 4°C with anti-FLAG M2 or anti-HA; immunoblot
T1 sequence: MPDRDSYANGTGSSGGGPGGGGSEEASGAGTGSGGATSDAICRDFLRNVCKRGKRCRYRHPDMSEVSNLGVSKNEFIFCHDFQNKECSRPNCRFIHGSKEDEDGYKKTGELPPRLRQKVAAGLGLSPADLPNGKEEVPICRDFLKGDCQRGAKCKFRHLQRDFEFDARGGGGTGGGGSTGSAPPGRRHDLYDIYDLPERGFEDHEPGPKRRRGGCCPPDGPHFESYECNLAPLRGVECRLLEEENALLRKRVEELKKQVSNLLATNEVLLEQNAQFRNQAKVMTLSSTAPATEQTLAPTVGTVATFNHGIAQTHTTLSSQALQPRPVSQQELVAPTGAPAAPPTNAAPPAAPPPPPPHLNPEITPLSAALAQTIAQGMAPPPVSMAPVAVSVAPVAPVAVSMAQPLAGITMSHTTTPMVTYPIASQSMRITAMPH

By UniProt entry, the sequences of proteins in these tests, tags left out.
UniProt Q6XZL8: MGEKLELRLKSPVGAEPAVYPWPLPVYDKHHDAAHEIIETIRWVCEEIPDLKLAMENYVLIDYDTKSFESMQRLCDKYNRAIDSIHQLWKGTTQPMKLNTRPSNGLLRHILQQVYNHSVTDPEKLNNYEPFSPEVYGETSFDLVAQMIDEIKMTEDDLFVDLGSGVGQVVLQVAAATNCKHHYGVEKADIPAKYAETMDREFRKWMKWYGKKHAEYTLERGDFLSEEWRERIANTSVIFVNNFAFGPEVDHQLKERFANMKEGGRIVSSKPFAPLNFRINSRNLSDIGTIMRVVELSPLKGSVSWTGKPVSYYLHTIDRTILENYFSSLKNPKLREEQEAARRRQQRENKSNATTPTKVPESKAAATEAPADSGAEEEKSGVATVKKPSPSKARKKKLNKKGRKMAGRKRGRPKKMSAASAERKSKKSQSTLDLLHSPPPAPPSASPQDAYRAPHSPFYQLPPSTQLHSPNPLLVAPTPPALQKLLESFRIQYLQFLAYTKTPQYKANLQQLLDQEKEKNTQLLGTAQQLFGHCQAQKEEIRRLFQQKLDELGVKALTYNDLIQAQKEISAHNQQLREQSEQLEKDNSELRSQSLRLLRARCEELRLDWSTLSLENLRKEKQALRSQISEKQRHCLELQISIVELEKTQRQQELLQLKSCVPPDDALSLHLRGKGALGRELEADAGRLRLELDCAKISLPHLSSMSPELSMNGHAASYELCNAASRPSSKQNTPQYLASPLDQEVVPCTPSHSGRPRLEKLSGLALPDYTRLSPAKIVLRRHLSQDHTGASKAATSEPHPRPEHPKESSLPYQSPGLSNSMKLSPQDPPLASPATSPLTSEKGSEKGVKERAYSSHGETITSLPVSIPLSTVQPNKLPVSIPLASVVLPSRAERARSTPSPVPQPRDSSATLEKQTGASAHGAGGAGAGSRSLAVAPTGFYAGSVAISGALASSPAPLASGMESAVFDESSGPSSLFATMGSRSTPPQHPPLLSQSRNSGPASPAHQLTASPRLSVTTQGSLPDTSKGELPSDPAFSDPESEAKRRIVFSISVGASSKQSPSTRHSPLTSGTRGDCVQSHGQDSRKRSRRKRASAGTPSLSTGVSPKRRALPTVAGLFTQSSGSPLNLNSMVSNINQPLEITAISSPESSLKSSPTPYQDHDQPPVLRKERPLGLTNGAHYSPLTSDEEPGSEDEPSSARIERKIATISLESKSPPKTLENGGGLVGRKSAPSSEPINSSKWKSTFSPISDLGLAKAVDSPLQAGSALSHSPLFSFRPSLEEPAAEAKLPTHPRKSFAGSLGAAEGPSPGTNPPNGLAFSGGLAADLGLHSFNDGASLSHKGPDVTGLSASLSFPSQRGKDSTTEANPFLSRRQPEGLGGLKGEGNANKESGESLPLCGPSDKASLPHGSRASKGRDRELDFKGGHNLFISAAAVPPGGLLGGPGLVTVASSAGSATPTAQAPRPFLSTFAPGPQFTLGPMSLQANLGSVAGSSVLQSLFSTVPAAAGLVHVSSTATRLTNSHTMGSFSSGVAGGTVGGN

[2] = molecular target: T2, endogenous Zc3h10 (mouse (endogenous in BAT)) (UniProt Q8R205); assay: co-IP; endogenous proteins, nuclear extracts of BAT of wild-type mice (also mice housed at room temperature or 4°C); Dot1l or Zc3h10 antibody and protein A/G agarose beads overnight at 4°C; immunoblot
T2 sequence: T1 sequence

HA-Dot1l (from UniProt Q6XZL8 1-1540) (enzyme)
binding [1]: binds

endogenous Dot1l (from UniProt Q6XZL8 1-1540) (enzyme)
binding [2]: binds

— PMC7661038
